Assay results as given in PubChem BioAssay AID540256 (National Center for Advancing Translational Sciences (NCATS), 2011).
Hit rate of the full screen: of about 300,000 compounds, about 3,700 (1.2%) were called active. This list was built around the results that the source calls inconclusive (neither active nor inactive); the mix of calls is not that of the screen. The call rests on the fitted dose curve; tested in HEK293 cells. Potencies beside an inconclusive call are fits to weak or partial responses and may not hold up.

assay: qHTS for Inhibitors of binding or entry into cells for Lassa Virus; settings: Lassa virus pseudotype entry inhibition, cell reporter; series mostly up to 37.9 µM; further: nearly all actives have a fitted effect of over 50% in size
Potency means the concentration at half of the fitted maximal effect.

| Structure (SMILES) | Potency |
| --- | --- |
| COc1ccc(-c2ccc(-c3nc4c(c(=O)[nH]c(=O)n4Cc4ccccc4)n3C)o2)c([N+](=O)[O-])c1 | inactive |
| Cc1cc(C)n2nc(SC(C)C(=O)N3CCC4(CC3)OCCO4)nc2n1 (stereo not given) | inactive |
| O=S(=O)(Nc1ccccn1)c1cccc(S(=O)(=O)c2ccc(Br)cc2)c1 | inconclusive: 35.5 µM [inhibitor, single point] |
| CCOC(=O)N1CCN(S(=O)(=O)CCNC(=O)c2ccccc2)CC1 | inactive |
| Cc1cccc(C(=O)NCCNC(=O)c2ccco2)c1 | inactive |
| CCCCCCCCCCCCCCSCC(=O)O | inconclusive: 7.3 µM [activator, partial curve, poor fit] |
| Cc1ccc(C)c(N2CCN(C3CCCC(C)C3)CC2)c1 (stereo not given) | inconclusive: 25.1 µM [inhibitor, single point] |
| O=C1CCCC/C1=C/Nc1ccc(C(=O)O)cc1 | inactive |
| CC1CN/C(=C\C(=O)c2ccc(Br)cc2)C(=O)N1 (stereo not given) | active: 8.2 µM |
| CSc1ccc(/C=N/NC(=O)c2ccc(O)cc2)cc1 | inconclusive: 5.01 µM [inhibitor, full curve] |
| CCc1cc2c(=O)[nH]c(Cc3ccc(Cl)cc3)nc2s1 | inconclusive: 22.4 µM [inhibitor, partial curve, poor fit] |
| O=C(Nc1cc(Cl)cc(Cl)c1)N1CCN(C(=O)C2CCCO2)CC1 (stereo not given) | inconclusive: 5.62 µM [activator, single point] |
| CN1CCN(CCCNC(=O)c2cn(C3CCCCC3)c(=O)c3c2c2ccccc2n3C)CC1 | inactive |
| N#C/C(=C\Nc1ccccc1O)c1nc2ccccc2o1 | inconclusive: 15.8 µM [inhibitor, single point] |
| Cc1cccc(-n2c(=O)c3c(c4cc(C)ccc4n3C)n(CC(=O)Nc3ccc(C)c(C)c3)c2=O)c1 | inconclusive: 35.5 µM [activator, single point] |
| CCCCn1c(N)c(N(CCC(C)C)C(=O)Cc2ccc(S(=O)(=O)N3CCOCC3)s2)c(=O)[nH]c1=O | inconclusive: 1.41 µM [inhibitor, partial curve, poor fit] |
| Cc1cc(NS(=O)(=O)c2ccc(NC(=O)C(C)Oc3cccc(C)c3C)cc2)nc(C)n1 (stereo not given) | inconclusive: 28.2 µM [inhibitor, partial curve, poor fit] |
| CCCCCCc1cc2cc(-c3nnc(-c4ccccc4)o3)c(=O)oc2cc1O | inconclusive: 3.16 µM [inhibitor, partial curve] |
| O=C(NCc1ccccc1)c1ccc(S(=O)(=O)C(F)F)cc1 | inconclusive: 1.12 µM [activator, full curve, poor fit] |
| CC(=O)Oc1ccccc1C1=NN(C(=O)/C=C/c2ccccc2)C(c2ccccc2)C1 (stereo not given) | inconclusive: 22.4 µM [inhibitor, partial curve, poor fit] |
| CCOC(=O)c1sc(NC(=O)CCN2C(=O)c3ccccc3C2=O)c(C(=O)OCC)c1C | inconclusive: 32.6 µM [activator, partial curve, poor fit] |
| Cc1ccc(N2CN(Cc3cccnc3)CNC2=S)c(C)c1 | inconclusive: 0.891 µM [inhibitor, full curve, poor fit] |
| O=C(/C=C/c1ccco1)Nc1ccccn1 | inconclusive: 6.31 µM [inhibitor, full curve, poor fit] |
| O=C(NCc1ccc(Cl)cc1)c1cc2cccc3c2n1CCS3 | inconclusive: 3.16 µM [inhibitor, partial curve, poor fit] |

Fetched by compound from the entries so far:

| Structure (SMILES) | Potency |
| --- | --- |
| CCc1cc2c(=O)[nH]c(Cc3ccc(Cl)cc3)nc2s1 | inconclusive: 22.4 µM [inhibitor, partial curve, poor fit] |
| Cc1ccc(C)c(N2CCN(C3CCCC(C)C3)CC2)c1 (stereo not given) | inconclusive: 25.1 µM [inhibitor, single point] |
| Cc1ccc(N2CN(Cc3cccnc3)CNC2=S)c(C)c1 | inconclusive: 0.891 µM [inhibitor, full curve, poor fit] |
| O=C(Nc1cc(Cl)cc(Cl)c1)N1CCN(C(=O)C2CCCO2)CC1 (stereo not given) | inconclusive: 5.62 µM [activator, single point] |

Next results

| Structure (SMILES) | Potency |
| --- | --- |
| C=C(C)COc1ccc(-c2[nH]ncc2-c2ccc(OC)c(OC)c2)c(O)c1 | active: 1.26 µM |
| O=C(O)CCc1ccc(-c2ccc(F)cc2)n1Cc1ccco1 | inactive |
| Cc1cccc(C)c1N1CCN(S(=O)(=O)c2ccc(F)cc2)CC1 | inconclusive: 35.5 µM [inhibitor, single point] |
| COc1ccc(CNC(=O)C2CCN(C(=O)N3CCOc4ccc(C)cc43)CC2)cc1 | inconclusive: 20 µM [inhibitor, single point] |
| Cc1ccc2nc(N/N=C\c3ccc([N+](=O)[O-])o3)nc(-c3ccccc3)c2c1 | inconclusive: 31.6 µM [inhibitor, single point] |
| Cc1cccc(NC(=O)COc2ccc(Br)cc2)n1 | inconclusive: 4.11 µM [activator, partial curve, poor fit] |
| Cc1ccc(Oc2cc([N+](=O)[O-])cc3c2C(=O)Nc2ccccc2O3)cc1 | inconclusive: 35.5 µM [inhibitor, single point] |
| Cc1ccc(N(C)S(=O)(=O)c2nnc(NC(=O)c3ccco3)s2)cc1 | inconclusive: 0.316 µM [inhibitor, full curve, poor fit] |
| COc1ccc(-c2c(C#N)c(SCC(=O)Nc3ccc(C)c(C)c3)nc(C)c2C(=O)Nc2ccccc2)cc1OC | inactive |
| CN(C)c1ccc(-c2nnc(-c3cccnc3)o2)cc1 | inconclusive: 0.708 µM [activator, partial curve, poor fit] |
| CCCC(c1nnnn1Cc1ccccc1)N1CCN(c2ccccc2OC)CC1 (stereo not given) | inactive |
| CC1CCCCC1N=C1NC(C)(C)CS1 (stereo not given) | inconclusive: 20 µM [activator, single point] |
| CC1=CCC(C(=O)N/N=C/c2cccs2)C(c2ccc(F)cc2)C1 (stereo not given) | inconclusive: 1.26 µM [inhibitor, partial curve, poor fit] |
| C=CCn1c(=O)c2c3c(sc2n2c(Nc4ccc(OC)cc4)nnc12)CCCC3 | inconclusive: 35.5 µM [inhibitor, single point] |
| COc1ccc(CNC(=O)N2CCN(c3cccc(C)c3C)CC2)cc1OC | inconclusive: 22.4 µM [inhibitor, single point] |
| CCOC(=O)c1sc2nc(C)nc(SC(C)C(=O)N(C)c3ccccc3)c2c1C (stereo not given) | inconclusive: 8.91 µM [inhibitor, partial curve, poor fit] |
| Nc1nc(CSC(=S)N2CCOCC2)nc(Nc2ccccc2)n1 | inconclusive: 2.59 µM [activator, partial curve] |
| O=C(CC12CC3CC(CC(C3)C1)C2)NCC(=O)N1CCc2ccccc2C1 | inactive |
| Cc1cc(/C=C2\C(=O)NC(=O)N(c3ccc(F)cc3)C2=O)c(C)n1-c1cccc(C(=O)O)c1 | inactive |
| O=C1C=C(Nc2ccc(Cl)cc2)CC(c2ccc(Cl)cc2)C1 (stereo not given) | inconclusive: 14.6 µM [inhibitor, partial curve, poor fit] |
| CC(C)(C)S(=O)(=O)/C(C#N)=N/Nc1ccc(Cl)cc1 | inconclusive: 10 µM [inhibitor, partial curve] |
| O=[N+]([O-])c1cc(Cl)ccc1Sc1ccccn1 | inactive |
| CC(N=Cc1c(O)c2ccccc2oc1=O)C(=O)O (stereo not given) | inconclusive: 31.6 µM [inhibitor, single point] |
| CC(OC(=O)CCC(=O)c1ccc(Cl)s1)C(=O)NC1(C#N)CCCCC1 (stereo not given) | inactive |

| Structure (SMILES) | Potency |
| --- | --- |
| CCOC(=O)c1[nH]c(C)c(C(=O)OC(C)C(=O)Nc2ncc(Cl)cc2Cl)c1C (stereo not given) | inconclusive: 25.1 µM [inhibitor, partial curve, poor fit] |
| Cc1ccc(C(N)=S)c(C)c1 | inconclusive: 12.6 µM [activator, partial curve, poor fit] |
| COc1ccc2cc3c(N)c(C(=O)N4CCCC4)sc3nc2c1 | inconclusive: 35.5 µM [inhibitor, single point] |
| Cc1ccsc1/C=C1/SC(=O)N(CC(=O)N2CCCC2)C1=O | inconclusive: 17.8 µM [activator, single point] |
| O=S(=O)(c1ccc2c(c1)OCCO2)N1CCC(c2nc3ccccc3s2)CC1 | inconclusive: 5.17 µM [inhibitor, full curve, poor fit] |
| CCc1ccc(NC(=O)N2CCN(c3nnc(C)c4c(C)n(-c5ccc(Cl)cc5)nc34)CC2)cc1 | inconclusive: 0.891 µM [inhibitor, full curve, poor fit] |
| CCOc1c(Cl)cc(C(=O)NCCN2CCCCC2)cc1Cl | inactive |
| O=C(N/N=C/c1ccc(Sc2nc3ccccc3[nH]2)o1)c1ccncc1 | inconclusive: 16.4 µM [inhibitor, partial curve, poor fit] |
| Cc1nnc(SCC(=O)N(C)C2CCCCC2)s1 | inconclusive: 11.2 µM [activator, single point] |
| CC(C)Cn1nc(NC(=O)C(C)(C)C)c2cc3ccccc3nc21 | inconclusive: 16.4 µM [inhibitor, single point] |
| Cc1ccc(NC(=O)C2=C(c3ccccc3)S(=O)(=O)CCS2(=O)=O)cc1 | inconclusive: 10 µM [inhibitor, partial curve, poor fit] |
| Oc1ccccc1/C=N/n1cnnc1 | inactive |
| COCCn1c(SCC(=O)N2CCCC2)nnc1-c1ccco1 | inactive |
| N#Cc1c(N)n(CCNC(=O)c2cccs2)c2nc3ccccc3nc12 | inactive |
| Cc1cc(C)cc(NC(=O)CSc2nccn2C2CCCC2)c1 | inactive |
| O=C(CSc1nc(-c2ccccc2)cc(C(F)(F)F)n1)NCc1cccs1 | inconclusive: 1.78 µM [activator, partial curve, poor fit] |
| Cc1ccc2nc(NC(=O)C3CCCN(S(=O)(=O)c4cccc5nsnc45)C3)sc2c1 (stereo not given) | inconclusive: 14.1 µM [inhibitor, partial curve, poor fit] |
| COc1ccc(C2CC(=O)c3cnc(NC(=O)c4ccco4)nc3C2)cc1 (stereo not given) | inactive |
| COc1cccc(CNC(=O)Cc2c(C)c3cc4c(C)coc4cc3oc2=O)c1 | inactive |
| O=C(c1ccco1)N1CCN(C(=S)Nc2ccccc2C(F)(F)F)CC1 | inconclusive: 12.6 µM [inhibitor, single point] |
| CN1CCN(C(=O)c2ccc(COc3cc(Cl)ccc3Cl)o2)CC1 | inconclusive: 3.98 µM [activator, single point] |
| CCOC(=O)c1c(NCc2ccccc2)n[nH]c1C | inconclusive: 11.2 µM [inhibitor, partial curve, poor fit] |
